Some results were stated once for a whole list of compounds, not compound by compound.
Legend:
Type in all cases: cell-based, human
[1] = test system: MCF7 (ER+) breast cancer cells; experiment: Anti-proliferative activity, MCF7; conditions: MCF7, at 100 μM
Experimental: (§1) As previously mentioned, it has been shown that Grp94 is not essential for tissue culture cell viability.^28 In contrast, loss of functional Hsp90α or Hsp90β results in cell death. Therefore, we investigated the anti-proliferative effects of compounds 1-5 against two breast cancer cells, MCF7 (ER+) and SKBR3 (Her2 overexpressing, ER—), and against the non-transformed HEK293 cells. […] To support these findings, western blot analyses of Hsp90α/β client proteins were performed from HEK293 cell lysates.

[2] = test system: SKBR3 (Her2 overexpressing, ER—) breast cancer cells; experiment: Anti-proliferative activity, SKBR3; conditions: SKBR3, at 100 μM
Experimental: as §1

[3] = test system: non-transformed HEK293 cells; experiment: Anti-proliferative activity, HEK293; conditions: HEK293, at 100 μM

SMILES	anti-proliferative activity [1]	anti-proliferative activity [2]	anti-proliferative activity [3]
COC(=O)c1c(O)cc(O)c(Cl)c1CCc1nccn1-c1ccccc1 [Compound 1, Methyl 3-chloro-4,6-dihydroxy-2-(2-(1-phenyl-1H-imidazol-2-yl)ethyl)benzoate]	None of the compounds evaluated manifested anti-proliferative activity	None of the compounds evaluated manifested anti-proliferative activity	None of the compounds evaluated manifested anti-proliferative activity
COC(=O)c1c(O)cc(O)c(Cl)c1CCc1nccn1CCc1ccccc1 [Compound 3, Methyl 3-chloro-4,6-dihydroxy-2-(2-(1-phenethyl-1H-imidazol-2-yl)ethyl)benzoate]	None of the compounds evaluated manifested anti-proliferative activity	None of the compounds evaluated manifested anti-proliferative activity	None of the compounds evaluated manifested anti-proliferative activity
COC(=O)c1c(O)cc(O)c(Cl)c1CCc1nccn1CCCc1ccccc1 [Compound 4, Methyl 3-chloro-4,6-dihydroxy-2-(2-(1-(3-phenylpropyl)-1H-imidazol-2-yl)ethyl)benzoate]	None of the compounds evaluated manifested anti-proliferative activity	None of the compounds evaluated manifested anti-proliferative activity	None of the compounds evaluated manifested anti-proliferative activity
COC(=O)c1c(O)cc(O)c(Cl)c1CCc1nccn1CCCCc1ccccc1 [Compound 5, Methyl 3-chloro-4,6-dihydroxy-2-(2-(1-(4-phenylbutyl)-1H-imidazol-2-yl)ethyl)benzoate]	None of the compounds evaluated manifested anti-proliferative activity	None of the compounds evaluated manifested anti-proliferative activity	None of the compounds evaluated manifested anti-proliferative activity

Source: patent US8685966B2, “GRP94 inhibitors” (University of Kansas, priority 2011, dated 2014)
